For test [1], the target named is T1, GST-praja2_(531–631) (human) (UniProt O43164).
T1 sequence: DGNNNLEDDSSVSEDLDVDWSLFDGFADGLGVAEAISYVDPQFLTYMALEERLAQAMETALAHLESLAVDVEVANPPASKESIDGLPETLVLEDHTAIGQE
The test is described as follows: pull-down; GST-fused proteins immobilised on glutathione beads, incubated three hours with cell lysates (0.5% NP40 buffer), washed three times, immunoblot; only the target purified. A general note: In western blotting, separated proteins are transferred to a membrane and probed.

In test [2] the target is T2, flag-praja2 ring mutant (human) (UniProt O43164).
T2 sequence: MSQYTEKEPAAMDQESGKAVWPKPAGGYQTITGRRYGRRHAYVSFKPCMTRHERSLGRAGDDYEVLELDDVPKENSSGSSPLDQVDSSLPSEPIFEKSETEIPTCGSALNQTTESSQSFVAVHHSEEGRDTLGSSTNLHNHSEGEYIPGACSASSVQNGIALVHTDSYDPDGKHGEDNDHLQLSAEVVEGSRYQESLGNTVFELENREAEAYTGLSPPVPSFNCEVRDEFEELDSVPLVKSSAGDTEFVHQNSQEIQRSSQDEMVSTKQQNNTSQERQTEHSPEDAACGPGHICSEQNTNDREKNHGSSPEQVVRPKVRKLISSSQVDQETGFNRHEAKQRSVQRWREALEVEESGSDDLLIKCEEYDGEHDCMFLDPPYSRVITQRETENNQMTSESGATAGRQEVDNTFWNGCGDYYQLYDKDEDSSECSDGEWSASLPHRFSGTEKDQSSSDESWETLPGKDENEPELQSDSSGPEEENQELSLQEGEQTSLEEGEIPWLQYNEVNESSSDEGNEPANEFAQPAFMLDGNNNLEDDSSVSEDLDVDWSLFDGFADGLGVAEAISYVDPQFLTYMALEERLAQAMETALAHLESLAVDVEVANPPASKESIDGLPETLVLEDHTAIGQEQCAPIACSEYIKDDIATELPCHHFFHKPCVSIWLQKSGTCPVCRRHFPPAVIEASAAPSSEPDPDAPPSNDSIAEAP
The test is described as follows: co-IP; lysates of transfected HEK293 cells (150 mM NaCl, 50 mM Tris-HCl pH 7.5, 1 mM EDTA, 0.5% NP40), overnight with anti-flag antibody or control IgG, immunoblot.

The target of another test is T3, flag-praja2 (human) (UniProt O43164).
T3 sequence: T2 sequence with A634C, A637C
The test is described as above.

The target in test [3] is GST-TBC1D31_(940–970) (human) (UniProt Q96DN5). The test is described as follows: pull-down; GST-fused proteins immobilised on glutathione beads, incubated three hours with cell lysates (0.5% NP40 buffer), washed three times, immunoblot; only the target purified.
For test [4], the target named is C-terminus of praja2 (yeast two-hybrid bait). Briefly: two-hybrid; yeast two-hybrid screening, C-terminus of praja2 as bait, human brain cDNA library.

Numbering of substitutions follows the chain as printed. No constants are given. Whether binding was seen depends on the method and setting. Binding can be weak; no strength is given. For some assays here: In cells and extracts the contact can be indirect. For some assays here: Sequences can lack the tags named with a protein.

In the case of GFP-TBC1D31 (from UniProt Q96DN5-3), the binding result (in test [1]; in test [2]; in the test with flag-praja2 (human)) was “binds” throughout.

B1: flag-praja2 (protein, UniProt O43164 1-708)
chain: T2 sequence with A634C, A637C
With B1, the binding result in test [3] is on record as “binds”. Turning to EEEAKKWKEAEGKEFRLRSAKKASALSDASR (domain or fragment, UniProt Q96DN5-1 940-970) [TBC1D31 C-terminus (residues 940–970), yeast two-hybrid clone], the binding entry in test [4] is “binds”.

The record behind these values is article PMC8126939, “The TBC1D31/praja2 complex controls primary ciliogenesis through PKA‐directed OFD1 ubiquitylation” (The EMBO Journal, 2021).
